Reference: article PMC12003269

Target: T1, 3×FLAG-RAB11B (UniProt Q15907)
T1 sequence: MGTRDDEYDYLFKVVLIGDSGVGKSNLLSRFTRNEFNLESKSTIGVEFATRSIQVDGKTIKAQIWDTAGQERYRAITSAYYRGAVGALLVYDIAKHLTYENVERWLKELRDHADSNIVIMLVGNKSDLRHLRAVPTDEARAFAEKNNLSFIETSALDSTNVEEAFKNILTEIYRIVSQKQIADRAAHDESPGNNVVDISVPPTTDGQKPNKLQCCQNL
Assay: affinity purification with mass spectrometry; 3×FLAG-RAB11B transiently transfected into HEK293T; 2 mg lysate immunoprecipitated overnight with anti-FLAG M2 affinity gel beads at 4°C; SDS-PAGE, bands ≥25 kDa analysed by mass spectrometry

- binding: binds
B1: RAB11FIP5 (RAB11 family interacting protein 5) (protein, UniProt Q9BXF6 1-653)
chain: MALVRGAEPAAGPSRWLPTHVQVTVLRARGLRGKSSGAGSTSDAYTVIQVGREKYSTSVVEKTHGCPEWREECSFELPPGALDGLLRAQEADAGPAPWAASSAAACELVLTTMHRSLIGVDKFLGQATVALDEVFGAGRAQHTQWYKLHSKPGKKEKERGEIEVTIQFTRNNLSASMFDLSMKDKPRSPFSKIRDKMKGKKKYDLESASAILPSSAIEDPDLGSLGKMGKAKGFFLRNKLRKSSLTQSNTSLGSDSTLSSASGSLAYQGPGAELLTRSPSRSSWLSTEGGRDSAQSPKLFTHKRTYSDEANQMRVAPPRALLDLQGHLDAASRSSLCVNGSHIYNEEPQGPVRHRSSISGSLPSSGSLQAVSSRFSEEGPRSTDDTWPRGSRSNSSSEAVLGQEELSAQAKVLAPGASHPGEEEGARLPEGKPVQVATPIVASSEAVAEKEGARKEERKPRMGLFHHHHQGLSRSELGRRSSLGEKGGPILGASPHHSSSGEEKAKSSWFGLREAKDPTQKPSPHPVKPLSAAPVEGSPDRKQSRSSLSIALSSGLEKLKTVTSGSIQPVTQAPQAGQMVDTKRLKDSAVLDQSAKYYHLTHDELISLLLQRERELSQRDEHVQELESYIDRLLVRIMETSPTLLQIPPGPPK

No constants are given. Whether binding was seen depends on the method and setting. Binding seen in cells or lysates may run through a third protein. A yes stands for co-enrichment or nearness to the bait. Other partners may have been found. Sequences can lack the tags named with a protein.
